PubChem BioAssay AID1259284, Sanger Institute, 2017
The whole screen tested 794 reagents; shown is a part drawn at random. Over the whole deposit, 16 (2%) were called active. 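Calls concern knock-down without drug only; drug synergy was judged apart, with scores above 0.15 taken as synergy.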 Further read-outs or replicates are left out here. The record does not give: the amount of reagent, the time to read-out.

Assay: 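Kinase knock-downs that cut colorectal cancer cell growth alone or with targeted drugs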 (primary screen)
Cells: SW48 human colorectal cancer cells
Reagent: siRNA pool against human genes
Conditions: anchor drug BYL719 at 1 µM, cetuximab at 5 µg/ml or trametinib at 10 nM, or DMSO vehicle alone
Detection: 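Cell viability relative to non-targeting pool wells, replicate mean, with robust z-scores and drug synergy scores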
Scale: robust z-score, no drug: higher = more cells survive knock-down
Active means: 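Called essential when the robust z-score of viability without drug falls below -3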
Meaning of the calls: active = essential without drug; inactive = no change without drug

gene | robust z-score, no drug | activity call
PRKG1 (protein kinase cGMP-dependent 1) | 0.426 | inactive
MAP3K10 (mitogen-activated protein kinase kinase kinase 10) | 0.426 | inactive
RFK (riboflavin kinase) | 0.426 | inactive
PIK3R1 (phosphoinositide-3-kinase regulatory subunit 1) | 0.426 | inactive
CNOT1 (CCR4-NOT transcription complex subunit 1) | -6.22 | active
DCLK3 (doublecortin like kinase 3) | 0.135 | inactive
PRKCH (protein kinase C eta) | 0.426 | inactive
WEE1 (WEE1 G2 checkpoint kinase) | -0.805 | inactive
NPR2 (natriuretic peptide receptor 2) | 0.426 | inactive
TCF7L2 (transcription factor 7 like 2) | 0.426 | inactive
MAP3K14 (mitogen-activated protein kinase kinase kinase 14) | 0.426 | inactive
EPHA10 (EPH receptor A10) | -0.311 | inactive
EFNA4 (ephrin A4) | 0.426 | inactive
PHKA2 (phosphorylase kinase regulatory subunit alpha 2) | 0.426 | inactive
WNK3 (WNK lysine deficient protein kinase 3) | 0.426 | inactive
PCK1 (phosphoenolpyruvate carboxykinase 1) | -1.48 | inactive
NLK (nemo like kinase) | 0.426 | inactive
CHKA (choline kinase alpha) | -0.0647 | inactive
PRKCA (protein kinase C alpha) | 0.426 | inactive
BMPR2 (bone morphogenetic protein receptor type 2) | 0.341 | inactive
MAP3K3 (mitogen-activated protein kinase kinase kinase 3) | 0.426 | inactive
MAP3K9 (mitogen-activated protein kinase kinase kinase 9) | -1.49 | inactive
DGKI (diacylglycerol kinase iota) | 0.426 | inactive
NTRK1 (neurotrophic receptor tyrosine kinase 1) | 0.426 | inactive
TSSK2 (testis specific serine kinase 2) | 0.289 | inactive
PPP2R1A (protein phosphatase 2 scaffold subunit Aalpha) | 0.426 | inactive
PRKAR2A | 0.426 | inactive
SPHK2 (sphingosine kinase 2) | 0.426 | inactive
EPHA1 (EPH receptor A1) | 0.426 | inactive
DGKK (diacylglycerol kinase kappa) | 0.426 | inactive
GRK7 (G protein-coupled receptor kinase 7) | 0.426 | inactive
RELA (RELA proto-oncogene, NF-kB subunit) | 0.426 | inactive
ERBB3 (erb-b2 receptor tyrosine kinase 3) | 0.426 | inactive
PIK3CB | 0.426 | inactive
CDK5R1 (cyclin dependent kinase 5 regulatory subunit 1) | 0.426 | inactive
CAMK4 (calcium/calmodulin dependent protein kinase IV) | 0.426 | inactive

Next part, starting with the last 4 of the part before.
gene | robust z-score, no drug | activity call
ERBB3 (erb-b2 receptor tyrosine kinase 3) | 0.426 | inactive
PIK3CB | 0.426 | inactive
CDK5R1 (cyclin dependent kinase 5 regulatory subunit 1) | 0.426 | inactive
CAMK4 (calcium/calmodulin dependent protein kinase IV) | 0.426 | inactive
IKBKB (inhibitor of nuclear factor kappa B kinase subunit beta) | 0.426 | inactive
GCK (glucokinase) | -2.81 | inactive
EPHA4 (EPH receptor A4) | 0.426 | inactive
TGFBR3 (transforming growth factor beta receptor 3) | 0.426 | inactive
MAP3K1 (mitogen-activated protein kinase kinase kinase 1) | 0.426 | inactive
CHD4 (chromodomain helicase DNA binding protein 4) | -3.51 | active
PASK (PAS domain containing serine/threonine kinase) | 0.426 | inactive
SPHK1 (sphingosine kinase 1) | 0.426 | inactive
CDKN1C (cyclin dependent kinase inhibitor 1C) | 0.426 | inactive
PRKCB (protein kinase C beta) | 0.426 | inactive
PAK5 (p21 (RAC1) activated kinase 5) | 0.426 | inactive
DCK (deoxycytidine kinase) | 0.275 | inactive
AK3 (adenylate kinase 3) | 0.426 | inactive
MAP3K12 (mitogen-activated protein kinase kinase kinase 12) | 0.426 | inactive
CKS1B (CDC28 protein kinase regulatory subunit 1B) | -1 | inactive
ALPK3 (alpha kinase 3) | 0.426 | inactive
DYRK3 (dual specificity tyrosine phosphorylation regulated kinase 3) | 0.426 | inactive
CERK (ceramide kinase) | 0.426 | inactive
THNSL1 (threonine synthase like 1) | 0.426 | inactive
RPS6KA2 (ribosomal protein S6 kinase A2) | -0.0216 | inactive
CKB (creatine kinase B) | 0.426 | inactive
CERT1 (ceramide transporter 1) | -0.262 | inactive
SRPK1 (SRSF protein kinase 1) | 0.426 | inactive
CRIM1 (cysteine rich transmembrane BMP regulator 1) | 0.426 | inactive
PRKCI (protein kinase C iota) | 0.426 | inactive
DTYMK (deoxythymidylate kinase) | 0.426 | inactive
RIOK3 (RIO kinase 3) | 0.426 | inactive
